Measured values taken from PubChem BioAssay AID1347075 (National Center for Advancing Translational Sciences (NCATS), 2019).
Where “and” joins values, the source holds several entries; their conditions need not be identical. Identical values can stand only once. Screen size: about 400,000 compounds; about 5,500 (1.4%) were called active. The inconclusive results got no clear call from the source; some entries with a clear call stand among them for comparison. The call rests on the fitted dose curve; in most records, active means well fitted cell-killing curve with a large enough effect; inconclusive means small, poorly fitted or top-dose-only effect, or effect the other way; inactive means flat fitted curve, though single readings scatter. Potencies of inconclusive entries are doubtful fits and often do not repeat.

Assay: qHTS assay for MDR1-selective chemotherapeutics: Primary screen using the parental adenocarcinoma cell KB-3-1; further: nearly all actives have a fitted effect of over 60% in size
Conditions: KB-3-1 viability, CellTiter-Glo ATP luminescence, 72 h; activity change, negative = cytotoxic: at 46.1 µM (top of the series)
Outline: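 Parental KB-3-1 adenocarcinoma cells in phenol-red-free DMEM with 10% FBS were pin-treated with compounds at several concentrations, incubated 72 h at 37 °C, and viability read by CellTiter-Glo luminescence; concentration-effect curves were fitted after normalization.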
On the % scale 0 is the no-effect control and ±100 the full control effect; potency means the concentration at half of the fitted maximal effect.

| SMILES | Potency | activity change, negative = cytotoxic |
| --- | --- | --- |
| O=C(Nc1cccc2ccccc12)c1ccc([N+](=O)[O-])o1 | inconclusive: 29.1 µM [cytotoxic, single point] | – |
| CN(c1ccccc1)c1ncnc2c1ncn2C | inconclusive: 23.1 µM [rising, partial curve, poor fit] | – |
| COc1cccc(OCC(=O)NC2CCCCCC2)c1 | inactive | – |
| O=C(CCl)c1ccc(Cc2ncc(C(F)(F)F)cc2Cl)s1 | inconclusive: 16.4 µM [cytotoxic, single point] | – |
| Cc1ccc2nc(SC(C)C(=O)Nc3cccc([N+](=O)[O-])c3)[nH]c2c1 (stereo not given) | inconclusive: 29.1 µM [cytotoxic, single point] | – |
| COc1cnc(-c2ccccn2)nc1Oc1ccccc1 | inactive | – |
| COc1ccc(-c2nnc(SCc3cc(=O)c4cc(C)cc(C)c4[nH]3)n2C)cc1 | active: 8.2 µM | – |
| Clc1ccsc1-c1csc(-c2cccnc2)n1 | active: 20.6 µM | – |
| COc1cccc2cc(-c3nc(Nc4cccc(C)c4)sc3C)c(=O)oc12 | inactive | – |
| COc1cc(/C=N/NC(=O)c2cc(C)oc2C)ccc1O | inconclusive: 32.6 µM [cytotoxic, single point] | – |
| CC(=O)c1cccc(NC(=O)c2nc3ccccc3n(C)c2=O)c1 | inconclusive: 29.1 µM [cytotoxic, single point] | – |
| O=C(Nc1cccc(S(=O)(=O)N2CCCCC2)c1)c1ccc2ccccc2n1 | inactive | – |
| CCN=C1S/C(=C/c2ccc(-c3ccc(F)cc3)o2)C(=O)N1CC | inactive | – |
| CC(C)OCCCN(C)C1CCN(S(=O)(=O)c2ccc(-c3cc(C(F)(F)F)no3)s2)CC1 | active: 16.4 µM | – |
| CC(=C/c1ccccc1)/C=N/N1CCN(Cc2ccc(C)cc2)CC1 | inactive | – |
| CN(c1ccccc1)S(=O)(=O)c1cccc(NC(=O)c2ccncc2)c1 | inconclusive: 4.11 µM [cytotoxic, partial curve, poor fit] | – |
| O=C(NCC1CCCO1)c1cc(-c2ccc(F)cc2)no1 (stereo not given) | inconclusive: 29.1 µM [cytotoxic, single point] | – |
| Cc1nn2cc(-c3cccc(Cl)c3)cnc2c1Cl | active: 13 µM | – |
| Cc1cccc(NC(=O)c2sc(Cl)nc2-c2ccccc2)c1 | inconclusive: 29.1 µM [cytotoxic, single point] | – |
| CCCCn1c(CCl)nc2cc(S(=O)(=O)N3CCOCC3)ccc21 | inconclusive: 29.1 µM [cytotoxic, single point] | – |
| O=C(Nc1cccnc1)Nc1cccc(F)c1 | inactive | – |
| C=CCOC(=O)c1[nH]c2c(c1C)C(=O)CC(c1ccco1)C2 (stereo not given) | inconclusive: 0.517 µM [cytotoxic, full curve] | – |
| Cc1ccc(C(=O)N/C(=C/c2ccc(-c3cc(C(F)(F)F)ccc3Cl)o2)C(=O)NCc2cccnc2)cc1 | inconclusive: 29.1 µM [cytotoxic, single point] | – |

| SMILES | Potency | activity change, negative = cytotoxic |
| --- | --- | --- |
| COc1ccc(-c2cc(C(=O)Nc3cc(Br)ccc3O)no2)cc1 | – | inconclusive: 8.93% |
| COc1ccccc1-c1nn2c(=O)cc(CN3CCN(C(=O)Nc4ccc(C)cc4Cl)CC3)nc2s1 | inconclusive: 23.1 µM [cytotoxic, partial curve, poor fit] | – |
| CN1/C(=C\C(=O)Nc2cccc(Cl)c2)C(C)(C)c2ccccc21 | inconclusive: 32.6 µM [cytotoxic, single point] | – |
| COc1ccccc1N1CCN(C(=O)COc2ccc(C)cc2Br)CC1 | inactive | – |
| Cc1ccc(S(=O)(=O)CC2CSc3nc4ccccc4n32)cc1 (stereo not given) | active: 0.731 µM | – |
| CCS(=O)(=O)N1CCc2cc(C(=O)Nc3ccc(Br)cc3F)ccc21 | inconclusive: 14.6 µM [cytotoxic, partial curve] | – |
| CCn1c(SCC(=O)N/N=C/c2ccc(C)s2)nc2ccccc21 | active: 13 µM | – |
| CSc1ccccc1NC(=O)CN(c1cc(C)cc(C)c1)S(C)(=O)=O | inactive | – |
| CCNc1ccc(Br)cc(C(=O)/C=C/c2ccc(Cl)cc2)c1=O | active: 16.4 µM | – |
| COC(=O)c1[nH]c2cc(OC)ccc2c1NC(=O)CN1CCN(c2cccc(C)c2)C(C)C1 (stereo not given) | inconclusive: 23.1 µM [cytotoxic, partial curve, poor fit] | – |
| CC1CCN(C(=O)CSc2nnc(-c3cc4ccccc4cc3O)n2Cc2ccco2)CC1 | inconclusive: 23.1 µM [cytotoxic, single point] | – |
| Cc1cccc(CS(=O)(=O)c2nnc([C@H](Cc3ccccc3)NC(=O)OC(C)(C)C)o2)c1 | inconclusive: 20.6 µM [cytotoxic, single point] | – |
| CCOCCc1nnc(NC(=O)CS(=O)(=O)c2ccc(C)cc2)s1 | inconclusive: 3.66 µM [rising, full curve] | – |
| O=c1cc(-c2ccccc2)[nH]c2cc(Cl)ccc12 | inconclusive: 1.84 µM [cytotoxic, full curve, poor fit] | – |
| O=C(COc1ccccc1)Nc1nc2c(s1)CCCC2 | inconclusive: 29.1 µM [cytotoxic, single point] | – |
| O=C(NC(=S)N1CCCC(O)C1)c1ccco1 (stereo not given) | inactive | – |
| COc1ccc(OC)c(NC(=O)CCCC(=O)NC2CCCCC2)c1 | inconclusive: 0.13 µM [rising, full curve] | – |
| Cc1ccc(-n2c(C)cc(/C=N/NC(=O)CC3(C)OCCO3)c2C)cc1 | inactive | – |
| CCOC(=O)c1ccc(NC(=O)CN2C(=O)NC3(CCCCCCC3)C2=O)cc1 | active: 7.31 µM | – |
| COc1ccc(NS(=O)(=O)c2cccc(C(=O)NCc3ccccc3CN3CCCC3)c2)cc1 | inconclusive: 16.4 µM [cytotoxic, partial curve, poor fit] | – |
| Cc1ccc(/C=N/NC(=O)c2cc(-c3cccnc3)nc3ccccc23)cc1 | active: 2.91 µM | – |
| COc1cc(/C=C2\SC(N)=NC2=O)ccc1O | inconclusive: 23.1 µM [cytotoxic, single point] | – |
| N#C/C(=C\C=C\c1ccccc1[N+](=O)[O-])C(=O)NCc1ccccc1 | active: 16.4 µM | – |

| SMILES | Potency | activity change, negative = cytotoxic |
| --- | --- | --- |
| O=C(NCc1ccccc1)C(C1CC1)n1c(CSCCOc2ccccc2)nc2ccccc21 (stereo not given) | inconclusive: 16.4 µM [cytotoxic, single point] | – |
| O=S(=O)(NCc1ccccc1)c1ccc(S(=O)(=O)NCC2CCCO2)cc1 (stereo not given) | inconclusive: 0.0073 µM [cytotoxic, full curve] | – |
| Cc1oc(-c2ccccc2F)nc1CS(=O)(=O)CC(=O)N1CCN(c2ccccc2)CC1 | inconclusive: 29.1 µM [cytotoxic, single point] | – |
| COc1cc(/C=C/C(=O)CC(=O)/C=C/c2ccc(O)c(OC)c2)ccc1O | inconclusive: 29.1 µM [cytotoxic, single point] | – |
| Cc1ccc(NC(=O)c2cc(C(=O)c3cc(Cl)ccc3O)cn(-c3ccc(C)cc3)c2=O)cc1 | inconclusive: 29.1 µM [cytotoxic, single point] | – |
| Cc1ccccc1C1=C/C(=C(\SS/C(C(=O)c2ccc(OCC(=O)O)c(Cl)c2Cl)=C2\C=C(c3ccccc3C)SS2)C(=O)c2ccc(OCC(=O)O)c(Cl)c2Cl)SS1 | inactive | – |
| N#Cc1nc(COc2ccccc2)oc1N1CCN(Cc2ccccc2)CC1 | inactive | – |
| COc1cc(OC)cc(-c2sc3ccc(OC)cc3c2C#CC(C)(C)O)c1 | inconclusive: 20.6 µM [cytotoxic, partial curve, poor fit] | – |
| Cc1ccc(NC(=O)C2CSC3(C)CCC(=O)N23)cc1S(=O)(=O)N1CCCCCC1 (stereo not given) | – | inconclusive: -30.9% [cytotoxic] |
| O=C(Nc1nnc(-c2ccccc2)s1)c1ccccc1O | inconclusive: 16.4 µM [cytotoxic, partial curve] | – |
| COc1ccccc1-c1ncn(Cc2cccc(-c3ccccc3)c2)c1-c1ccco1 | inconclusive: 29.1 µM [cytotoxic, single point] | – |
| CC[n+]1c(/C=C/C=C/N(C(C)=O)c2ccccc2)sc2ccccc21 | active: 16.4 µM | – |
| O=C1C(SCCO)=C(SCCO)C(=O)c2ccccc21 | inconclusive: 29.1 µM [cytotoxic, partial curve, poor fit] and inconclusive: 5.17 µM [cytotoxic, full curve] | inconclusive: -95.1% |
| Cc1nn(-c2ccccc2)c(C)c1Cc1ccc(O)cc1 | inactive | – |
| Cc1cc(=O)[nH]c2ccc(Cc3ccccc3)cc12 | inconclusive: 18.4 µM [cytotoxic, partial curve, poor fit] | – |
| N=c1n(CC(=O)c2ccc(Br)cc2)c2ccccc2n1Cc1ccccc1 | inconclusive: 25.9 µM [cytotoxic, single point] | – |
| CC(C)(C)c1ccc(-c2nc(C#N)c(NCc3ccncc3)o2)cc1 | inconclusive: 14.6 µM [cytotoxic, partial curve, poor fit] | – |
| C=CCc1ccccc1OCC(O)CN1CCN(Cc2ccc3c(c2)OCO3)CC1 (stereo not given) | inactive | – |
| O=C(COc1ccc(-c2ccccc2)cc1)N/N=C/c1cc(O)ccc1Br | inconclusive: 29.1 µM [cytotoxic, single point] | – |
| C#CCOc1c(Br)cc(/C=N/O)cc1OCC | inconclusive: 0.82 µM [cytotoxic, full curve, poor fit] | – |
| Cc1nn2c(-c3ccco3)nnc2c2ccccc12 | inconclusive: 15.8 µM [cytotoxic, single point] | – |
| CCOc1ccc(NS(=O)(=O)c2ccc(C(=O)N(C)CC(=O)Nc3cccc(OC)c3)cc2)cc1 | inconclusive: 16.4 µM [cytotoxic, partial curve] | – |
| CC(SC(C)C(=O)NN=Cc1cccc(Cl)c1)C(=O)NN=Cc1cccc(Cl)c1 (stereo not given) | inconclusive: 14.6 µM [cytotoxic, single point] | – |
